Experimental data: US20210163576A1 (JIANGNAN UNIVERSITY, published 2021)

B1: E3-VB-K3 (containing 6xHis tags) (designed binder)
chain: HHHHHHGEISALEKEISALEKEISALEKGGGGGGGADEQEEKAKVRTELIQELAQGLGGIEKKNFPTLGDEDLDHTYMTKLLTYLQEREQAENSWRKRLLKGIQDHALDPGPRGEQGPQGLPGKDGEAGAQGPAGPMGPAGFPGERGEKGEPGTQGAKGDRGETGPVGPRGERGEAGPAGKDGERGPVGPAGGGGGGGGKISALKEKISALKEKISALKE
notes: 6xHis, E3 helix, glycine linker, V-domain, one B collagen region, glycine linker, K3 helix; also called collagen E3-VB-K3; designed collagen E3-VB-K3
B2: E3-VBBB-K3 (containing 6xHis tags) (designed binder)
chain: HHHHHHGEISALEKEISALEKEISALEKGGGGGGGADEQEEKAKVRTELIQELAQGLGGIEKKNFPTLGDEDLDHTYMTKLLTYLQEREQAENSWRKRLLKGIQDHALDPGPRGEQGPQGLPGKDGEAGAQGPAGPMGPAGFPGERGEKGEPGTQGAKGDRGETGPVGPRGERGEAGPAGKDGERGPVGPAGPRGEQGPQGLPGKDGEAGAQGPAGPMGPAGFPGERGEKGEPGTQGAKGDRGETGPVGPRGERGEAGPAGKDGERGPVGPAGPRGEQGPQGLPGKDGEAGAQGPAGPMGPAGFPGERGEKGEPGTQGAKGDRGETGPVGPRGERGEAGPAGKDGERGPVGPAGGGGGGGGKISALKEKISALKEKISALKE
notes: As E3-VB-K3 but with three repeated B collagen regions; also called collagen E3-VBBB-K3; designed collagen E3-VBBB-K3
B3: E3-VBB-K3 (containing 6xHis tags) (designed binder)
chain: HHHHHHGEISALEKEISALEKEISALEKGGGGGGGADEQEEKAKVRTELIQELAQGLGGIEKKNFPTLGDEDLDHTYMTKLLTYLQEREQAENSWRKRLLKGIQDHALDPGPRGEQGPQGLPGKDGEAGAQGPAGPMGPAGFPGERGEKGEPGTQGAKGDRGETGPVGPRGERGEAGPAGKDGERGPVGPAGPRGEQGPQGLPGKDGEAGAQGPAGPMGPAGFPGERGEKGEPGTQGAKGDRGETGPVGPRGERGEAGPAGKDGERGPVGPAGGGGGGGGKISALKEKISALKEKISALKE
notes: As E3-VB-K3 but with two repeated B collagen regions; also called collagen E3-VBB-K3; designed collagen E3-VBB-K3

Biological target: the molecule itself
Assay: dialysis against 10 mM PB; self-aggregation

Protein | binding result
B1 | binds
B2 | binds
B3 | binds
